Assay results from PMC6401487.
These are yes or no findings as the source states them, for the method shown. In cells and extracts the contact can be indirect. Here binding means that the protein was enriched with, or labelled near, the bait; the list need not be complete. For some assays here: No binding means not detected with the bait. Where a sequence is shown, tags or fusion partners need not be part of it.

Amino acid sequences for entries named in this document (tags omitted). A change or cut given only in a name is not applied to a line headed by its entry.
UniProt Q5JIK0: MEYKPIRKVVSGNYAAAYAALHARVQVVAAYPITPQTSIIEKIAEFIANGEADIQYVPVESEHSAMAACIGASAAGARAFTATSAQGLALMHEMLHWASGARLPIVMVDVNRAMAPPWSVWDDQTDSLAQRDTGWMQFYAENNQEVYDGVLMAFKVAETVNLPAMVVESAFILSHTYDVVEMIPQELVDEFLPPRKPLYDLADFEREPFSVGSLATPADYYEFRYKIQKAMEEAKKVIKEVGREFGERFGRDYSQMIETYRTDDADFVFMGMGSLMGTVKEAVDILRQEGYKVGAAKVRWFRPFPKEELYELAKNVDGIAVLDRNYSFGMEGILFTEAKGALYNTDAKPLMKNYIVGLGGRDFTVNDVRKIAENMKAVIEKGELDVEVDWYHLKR
UniProt Q5JHW0: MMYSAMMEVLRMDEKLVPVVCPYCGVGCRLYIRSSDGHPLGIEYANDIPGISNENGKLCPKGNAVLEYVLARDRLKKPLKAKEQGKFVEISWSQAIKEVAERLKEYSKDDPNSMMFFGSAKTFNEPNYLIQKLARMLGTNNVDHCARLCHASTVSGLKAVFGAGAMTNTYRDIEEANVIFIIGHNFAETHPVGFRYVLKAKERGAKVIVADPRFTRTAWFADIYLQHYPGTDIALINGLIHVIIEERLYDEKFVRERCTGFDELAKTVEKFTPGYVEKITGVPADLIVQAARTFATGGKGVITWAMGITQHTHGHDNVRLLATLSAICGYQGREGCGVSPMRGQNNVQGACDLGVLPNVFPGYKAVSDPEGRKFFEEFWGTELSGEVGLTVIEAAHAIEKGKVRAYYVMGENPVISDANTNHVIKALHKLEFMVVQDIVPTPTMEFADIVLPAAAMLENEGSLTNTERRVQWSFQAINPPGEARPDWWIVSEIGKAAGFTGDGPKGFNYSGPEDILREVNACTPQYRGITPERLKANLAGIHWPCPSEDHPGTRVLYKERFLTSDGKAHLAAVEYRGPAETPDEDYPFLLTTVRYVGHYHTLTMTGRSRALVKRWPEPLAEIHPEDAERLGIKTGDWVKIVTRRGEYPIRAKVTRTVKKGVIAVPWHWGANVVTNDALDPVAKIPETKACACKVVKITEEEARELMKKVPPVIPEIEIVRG
UniProt Q5JE61: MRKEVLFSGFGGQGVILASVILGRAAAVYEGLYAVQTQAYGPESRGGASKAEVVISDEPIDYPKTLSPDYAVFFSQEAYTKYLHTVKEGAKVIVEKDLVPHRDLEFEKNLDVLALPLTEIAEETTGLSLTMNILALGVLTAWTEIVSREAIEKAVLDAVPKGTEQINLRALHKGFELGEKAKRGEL
UniProt Q5JIJ6: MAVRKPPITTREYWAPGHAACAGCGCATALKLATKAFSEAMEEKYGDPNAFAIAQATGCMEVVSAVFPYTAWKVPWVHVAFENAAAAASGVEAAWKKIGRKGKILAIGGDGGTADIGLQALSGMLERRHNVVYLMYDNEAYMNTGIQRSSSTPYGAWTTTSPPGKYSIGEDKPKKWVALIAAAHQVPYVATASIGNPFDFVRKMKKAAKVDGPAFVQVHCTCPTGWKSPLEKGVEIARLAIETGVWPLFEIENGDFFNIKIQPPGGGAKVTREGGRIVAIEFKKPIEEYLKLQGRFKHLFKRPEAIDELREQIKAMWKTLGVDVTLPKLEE

Assays:
[1] = target: T1, Ferredoxin 1 (Fd-1), encoded by TK1694, with C-terminal HA-His6 extension (Thermococcus kodakarensis) (UniProt Q977X3); experiment: affinity purification with mass spectrometry; C-terminally HA-His6-tagged Fd made from its own genomic locus; clarified lysates of cultures grown with S0 or without S0 (pyruvate); Ni2+-charged chelating column at 4 °C in 25 mM Tris-HCl pH 8.0, 500 mM NaCl, 10% glycerol; linear imidazole gradient; pooled Fd-containing fractions analysed by MuDPIT; proteins also found in equivalent fractions of parental strain TS559 subtracted
T1 sequence: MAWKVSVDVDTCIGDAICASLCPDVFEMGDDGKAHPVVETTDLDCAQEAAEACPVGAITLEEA

[2] = target: T2, Ferredoxin 3 (Fd-3), encoded by TK2012, with C-terminal HA-His6 extension (Thermococcus kodakarensis) (UniProt Q5JDE8); experiment: as above
T2 sequence: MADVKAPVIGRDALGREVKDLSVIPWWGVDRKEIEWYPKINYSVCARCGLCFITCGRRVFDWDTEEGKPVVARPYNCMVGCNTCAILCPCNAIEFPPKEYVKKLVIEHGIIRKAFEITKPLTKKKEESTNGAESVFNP

Substance	binding [1]	binding [2]
2-Oxoisovalerate:ferredoxin oxidoreductase, α subunit (from UniProt Q5JIK0)	binds	
Formate dehydrogenase, α subunit (from UniProt Q5JHW0)		binds
Oxoacid:ferredoxin oxidoreductases, γ subunit (from UniProt Q5JE61)		no binding
Pyruvate:ferredoxin oxidoreductase, β subunit (from UniProt Q5JIJ6)	binds	binds
